Literature values, collected in US7005298B1, “Micropropagation and production of phytopharmaceutical plants” (priority 1999, dated 2006).
At least one compound was matched to its structure with a doubt left.

Details: of all patients; depression; cited from earlier work

## [Li] [lithium]
  patients in whom treatment is effective: 60–80%
